The values below come from paper PMC10731658 (Chemical Research in Toxicology, 2023).

SMILES strings stand for the structures.

The test system of this series is HepG2 cells. The experiment in a line: Colorimetric MTT cell viability assay, 24 h. Particulars: relative to K048 IC50 of 30.60 mmol/L.

As for `O/N=C/c1cc[n+](CCCC[n+]2ccc(/C=N/O)cc2)cc1` [K074, 1,1′-(butane-1,4-diyl)bis(4((hydroxyimino)methyl)pyridine-1-ium) dibromide], the “fold lower IC50 than K048” value was 1.13 fold.
